# Results taken from PMC6372160, “Biophysical and structural characterization of a zinc-responsive repressor of the MarR superfamily” (PLoS ONE, 2019).
# Sequences of proteins named here, by UniProt entry; tags and fusion partners are left off. A change or cut given only in a name is not applied to a line headed by its entry.
# UniProt A2RNS2: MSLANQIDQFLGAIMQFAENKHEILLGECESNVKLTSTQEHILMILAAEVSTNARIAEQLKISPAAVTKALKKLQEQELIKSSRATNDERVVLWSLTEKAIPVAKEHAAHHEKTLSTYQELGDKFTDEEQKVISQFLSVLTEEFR
# Construct, isoform or probe ends are uncertain for at least one entry. Tags and fusion partners may be left off the protein sequences shown.
# Target: T1, ZitR (ZitRMG), holo Zn(II) form S2A,A4R,D8E (Lactococcus lactis subsp. cremoris MG1363) (UniProt A2RNS2)
# T1 sequence (looked up): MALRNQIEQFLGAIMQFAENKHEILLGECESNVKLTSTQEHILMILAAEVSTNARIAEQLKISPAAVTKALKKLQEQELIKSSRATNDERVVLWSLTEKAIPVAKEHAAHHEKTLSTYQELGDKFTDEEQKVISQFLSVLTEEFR
# Experiment: ITC
# Conditions: 100 uM ZnSO4, ITC: 20 mM Tris-HCl pH 7.0, 150 mM NaCl, ~20 uM ZitR titrated with 270 uM dsDNA, temperature not stated, recombinant protein, residues 1-145, protein details: untagged, letters put together from the description
row,Sequence,Kd [nM]
1,"AATGTTAACTGGTTGACAT / TATGTCAACCAGTTAACAT [Palindrome 1 of Pzit, -35 box]",200
2,"ATAATTAACCAGTAAACTAA / TTTAGTTTACTGGTTAATTA [Palindrome 2 of Pzit, -10 box]",600
